This is one part of the list.
Each target was assayed with NC(=O)Nc1cc(-c2cccc(F)c2)sc1C(=O)N[C@H]1CCCNC1 (assay: log2 fold change, soluble protein after heating vs DMSO (PISA); higher = thermal stabilisation; K562 cells, 10 uM, 30 min; active = over 0.2 and 3.5 SD of the protein, either way, in both replicates (recomputed)).
How it was run: (§1)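 K562 cells at 2×10^6 cells/mL were given 10 μM compound for 30 min. Aliquots then went through 3 min of heating across 48°C-58°C, were pooled, and were extracted in PBS with 0.5% NP-40 at 4°C, and the supernatant after 21,000xg for 90 min was quantified by TMTpro 16plex LC-MS/MS with channel sums equalised. Thermal stability relative to control samples, from duplicates, is given as log2 fold change.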

Amino acid sequences for entries named in this document (tags omitted). A change or cut given only in a name is not applied to a line headed by its entry.
UniProt Q9Y3V2: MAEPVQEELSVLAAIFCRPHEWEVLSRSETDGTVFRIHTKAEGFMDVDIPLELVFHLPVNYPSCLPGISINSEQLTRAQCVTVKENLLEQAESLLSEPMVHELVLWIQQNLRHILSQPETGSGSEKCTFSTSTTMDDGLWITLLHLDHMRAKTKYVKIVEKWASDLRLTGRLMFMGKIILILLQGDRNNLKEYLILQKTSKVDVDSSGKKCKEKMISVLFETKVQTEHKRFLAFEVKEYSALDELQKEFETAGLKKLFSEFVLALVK
UniProt P23297: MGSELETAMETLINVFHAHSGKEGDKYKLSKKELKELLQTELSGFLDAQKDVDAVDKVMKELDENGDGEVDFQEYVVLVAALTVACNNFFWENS
UniProt Q9H7N4: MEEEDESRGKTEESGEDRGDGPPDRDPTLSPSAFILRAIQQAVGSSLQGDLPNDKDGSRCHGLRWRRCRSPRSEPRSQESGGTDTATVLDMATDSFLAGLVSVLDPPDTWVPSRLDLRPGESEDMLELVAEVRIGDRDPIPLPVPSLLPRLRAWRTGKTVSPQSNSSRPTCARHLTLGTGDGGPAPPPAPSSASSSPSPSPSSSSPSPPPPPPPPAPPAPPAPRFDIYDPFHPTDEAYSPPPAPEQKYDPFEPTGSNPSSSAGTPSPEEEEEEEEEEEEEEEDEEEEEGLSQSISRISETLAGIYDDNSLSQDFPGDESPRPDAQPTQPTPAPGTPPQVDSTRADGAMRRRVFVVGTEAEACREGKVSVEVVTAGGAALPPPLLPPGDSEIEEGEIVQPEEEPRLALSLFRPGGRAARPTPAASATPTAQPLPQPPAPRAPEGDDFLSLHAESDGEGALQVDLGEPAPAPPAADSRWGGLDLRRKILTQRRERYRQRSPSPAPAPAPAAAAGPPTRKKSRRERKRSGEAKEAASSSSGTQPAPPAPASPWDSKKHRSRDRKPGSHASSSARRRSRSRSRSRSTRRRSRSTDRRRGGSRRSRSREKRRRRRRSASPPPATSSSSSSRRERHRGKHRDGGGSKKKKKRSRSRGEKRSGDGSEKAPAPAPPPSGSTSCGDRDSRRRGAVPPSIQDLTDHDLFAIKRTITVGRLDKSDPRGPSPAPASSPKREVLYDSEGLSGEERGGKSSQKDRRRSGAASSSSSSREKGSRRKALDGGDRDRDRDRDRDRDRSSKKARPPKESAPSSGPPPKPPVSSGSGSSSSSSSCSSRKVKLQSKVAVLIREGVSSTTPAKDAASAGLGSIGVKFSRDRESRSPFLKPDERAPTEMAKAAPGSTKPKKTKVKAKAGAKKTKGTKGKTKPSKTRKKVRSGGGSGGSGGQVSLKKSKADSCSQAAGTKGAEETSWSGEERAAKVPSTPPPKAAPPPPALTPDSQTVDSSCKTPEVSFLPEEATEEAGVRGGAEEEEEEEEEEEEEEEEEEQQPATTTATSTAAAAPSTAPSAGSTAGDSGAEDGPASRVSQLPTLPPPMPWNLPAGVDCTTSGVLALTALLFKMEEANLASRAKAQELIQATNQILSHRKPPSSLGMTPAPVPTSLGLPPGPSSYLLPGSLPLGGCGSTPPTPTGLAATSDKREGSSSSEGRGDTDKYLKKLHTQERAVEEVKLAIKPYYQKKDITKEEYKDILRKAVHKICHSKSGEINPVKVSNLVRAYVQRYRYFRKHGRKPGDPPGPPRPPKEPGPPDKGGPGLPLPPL
UniProt P28702: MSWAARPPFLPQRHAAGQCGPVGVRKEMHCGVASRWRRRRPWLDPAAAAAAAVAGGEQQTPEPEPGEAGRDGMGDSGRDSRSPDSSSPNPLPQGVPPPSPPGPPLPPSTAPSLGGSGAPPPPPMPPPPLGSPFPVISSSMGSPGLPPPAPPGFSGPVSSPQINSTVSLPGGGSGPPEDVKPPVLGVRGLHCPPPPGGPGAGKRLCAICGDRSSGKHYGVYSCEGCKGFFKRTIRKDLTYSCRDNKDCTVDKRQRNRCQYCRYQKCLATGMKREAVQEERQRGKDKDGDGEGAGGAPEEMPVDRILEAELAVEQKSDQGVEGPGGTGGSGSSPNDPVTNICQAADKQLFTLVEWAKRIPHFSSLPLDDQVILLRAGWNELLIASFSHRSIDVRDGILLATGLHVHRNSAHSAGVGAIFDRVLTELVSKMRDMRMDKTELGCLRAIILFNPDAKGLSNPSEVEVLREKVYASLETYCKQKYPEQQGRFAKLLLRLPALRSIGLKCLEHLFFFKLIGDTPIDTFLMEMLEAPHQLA
UniProt Q8N9R8: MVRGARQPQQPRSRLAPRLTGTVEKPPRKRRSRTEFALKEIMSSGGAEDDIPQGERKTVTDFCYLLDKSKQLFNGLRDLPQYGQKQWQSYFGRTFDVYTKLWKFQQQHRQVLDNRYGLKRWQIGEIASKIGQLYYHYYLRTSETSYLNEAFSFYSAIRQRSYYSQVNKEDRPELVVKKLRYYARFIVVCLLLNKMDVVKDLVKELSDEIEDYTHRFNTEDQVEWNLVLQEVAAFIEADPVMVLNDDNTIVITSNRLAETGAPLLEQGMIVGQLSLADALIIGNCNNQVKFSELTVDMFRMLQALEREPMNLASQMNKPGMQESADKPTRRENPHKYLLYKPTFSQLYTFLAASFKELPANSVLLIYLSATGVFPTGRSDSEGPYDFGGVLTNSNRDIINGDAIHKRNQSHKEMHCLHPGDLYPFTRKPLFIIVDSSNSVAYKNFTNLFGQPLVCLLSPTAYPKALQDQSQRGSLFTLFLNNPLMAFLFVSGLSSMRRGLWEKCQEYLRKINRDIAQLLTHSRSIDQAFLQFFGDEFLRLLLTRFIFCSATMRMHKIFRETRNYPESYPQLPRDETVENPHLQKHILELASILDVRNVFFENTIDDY
UniProt Q9NQC3: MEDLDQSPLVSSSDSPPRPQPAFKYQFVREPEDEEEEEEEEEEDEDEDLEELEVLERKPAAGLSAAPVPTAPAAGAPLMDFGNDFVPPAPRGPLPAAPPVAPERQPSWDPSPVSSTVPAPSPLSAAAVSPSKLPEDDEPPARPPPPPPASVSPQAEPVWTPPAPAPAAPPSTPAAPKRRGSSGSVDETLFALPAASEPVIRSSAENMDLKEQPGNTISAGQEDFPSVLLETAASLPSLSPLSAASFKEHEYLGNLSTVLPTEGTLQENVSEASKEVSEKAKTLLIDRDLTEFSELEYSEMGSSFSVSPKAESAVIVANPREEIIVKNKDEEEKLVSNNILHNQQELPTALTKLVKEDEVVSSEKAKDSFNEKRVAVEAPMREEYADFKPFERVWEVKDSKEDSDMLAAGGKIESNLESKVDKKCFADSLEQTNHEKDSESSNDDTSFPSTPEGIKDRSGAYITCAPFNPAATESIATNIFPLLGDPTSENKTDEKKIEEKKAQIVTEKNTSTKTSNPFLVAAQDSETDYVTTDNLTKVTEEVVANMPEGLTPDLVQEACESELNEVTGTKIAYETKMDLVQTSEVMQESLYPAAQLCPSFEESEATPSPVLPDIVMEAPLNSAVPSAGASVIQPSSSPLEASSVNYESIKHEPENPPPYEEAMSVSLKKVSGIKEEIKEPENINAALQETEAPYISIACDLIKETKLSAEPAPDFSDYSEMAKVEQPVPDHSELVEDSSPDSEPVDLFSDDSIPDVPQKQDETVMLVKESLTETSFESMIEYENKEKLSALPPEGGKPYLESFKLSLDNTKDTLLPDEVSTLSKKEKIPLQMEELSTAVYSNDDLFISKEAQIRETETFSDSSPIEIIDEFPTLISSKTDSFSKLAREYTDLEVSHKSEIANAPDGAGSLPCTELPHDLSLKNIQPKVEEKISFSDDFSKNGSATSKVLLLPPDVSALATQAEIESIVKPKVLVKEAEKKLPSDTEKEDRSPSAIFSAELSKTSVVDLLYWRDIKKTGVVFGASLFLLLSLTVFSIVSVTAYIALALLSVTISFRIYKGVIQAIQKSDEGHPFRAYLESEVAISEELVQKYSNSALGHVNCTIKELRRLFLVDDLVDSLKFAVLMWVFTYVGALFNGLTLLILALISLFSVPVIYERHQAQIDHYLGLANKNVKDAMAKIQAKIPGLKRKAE
UniProt Q9H0E3: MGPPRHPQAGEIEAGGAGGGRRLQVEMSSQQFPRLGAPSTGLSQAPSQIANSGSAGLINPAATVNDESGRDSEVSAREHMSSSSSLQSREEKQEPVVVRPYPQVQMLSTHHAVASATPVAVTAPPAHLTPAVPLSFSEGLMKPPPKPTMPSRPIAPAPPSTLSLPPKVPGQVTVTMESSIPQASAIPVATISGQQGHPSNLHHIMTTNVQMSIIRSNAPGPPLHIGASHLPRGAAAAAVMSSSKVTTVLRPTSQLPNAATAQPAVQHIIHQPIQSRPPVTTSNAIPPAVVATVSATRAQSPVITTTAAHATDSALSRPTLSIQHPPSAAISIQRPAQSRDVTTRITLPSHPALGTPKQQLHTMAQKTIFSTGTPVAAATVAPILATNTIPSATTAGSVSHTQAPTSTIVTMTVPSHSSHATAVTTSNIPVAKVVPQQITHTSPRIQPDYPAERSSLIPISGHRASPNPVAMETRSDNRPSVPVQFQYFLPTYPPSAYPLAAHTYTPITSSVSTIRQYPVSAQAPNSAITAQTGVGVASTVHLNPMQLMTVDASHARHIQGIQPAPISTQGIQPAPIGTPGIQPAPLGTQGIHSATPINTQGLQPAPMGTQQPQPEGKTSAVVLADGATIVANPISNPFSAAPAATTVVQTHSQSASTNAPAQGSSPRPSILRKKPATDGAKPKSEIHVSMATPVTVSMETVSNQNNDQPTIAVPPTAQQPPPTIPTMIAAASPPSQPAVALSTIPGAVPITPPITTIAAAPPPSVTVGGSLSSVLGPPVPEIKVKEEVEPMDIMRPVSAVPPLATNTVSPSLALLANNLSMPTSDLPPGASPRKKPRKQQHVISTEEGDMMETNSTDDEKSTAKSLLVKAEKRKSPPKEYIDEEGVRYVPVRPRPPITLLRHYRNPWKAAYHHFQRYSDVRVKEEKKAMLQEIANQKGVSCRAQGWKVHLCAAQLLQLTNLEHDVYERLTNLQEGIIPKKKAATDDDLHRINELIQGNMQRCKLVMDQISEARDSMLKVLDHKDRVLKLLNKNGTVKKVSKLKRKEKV
UniProt Q6UWP8: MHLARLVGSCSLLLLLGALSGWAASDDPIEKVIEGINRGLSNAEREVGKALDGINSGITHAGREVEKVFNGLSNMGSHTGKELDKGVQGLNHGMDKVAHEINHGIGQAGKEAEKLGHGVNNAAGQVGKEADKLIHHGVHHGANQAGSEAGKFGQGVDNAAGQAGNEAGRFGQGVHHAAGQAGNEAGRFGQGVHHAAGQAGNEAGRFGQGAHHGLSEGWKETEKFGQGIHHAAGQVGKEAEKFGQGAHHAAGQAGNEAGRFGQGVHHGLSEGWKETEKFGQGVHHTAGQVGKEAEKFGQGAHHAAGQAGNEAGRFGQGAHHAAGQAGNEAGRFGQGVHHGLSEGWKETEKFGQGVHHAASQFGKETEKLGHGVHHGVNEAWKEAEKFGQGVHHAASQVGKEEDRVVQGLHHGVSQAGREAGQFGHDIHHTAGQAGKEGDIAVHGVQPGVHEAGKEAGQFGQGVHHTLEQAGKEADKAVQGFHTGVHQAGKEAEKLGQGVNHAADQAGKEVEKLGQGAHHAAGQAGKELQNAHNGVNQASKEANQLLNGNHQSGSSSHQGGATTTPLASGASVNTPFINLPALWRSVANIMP
UniProt Q9HCY8: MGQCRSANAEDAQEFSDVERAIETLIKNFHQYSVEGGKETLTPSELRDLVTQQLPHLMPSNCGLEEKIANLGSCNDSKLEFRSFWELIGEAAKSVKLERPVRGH
UniProt Q7L3V2: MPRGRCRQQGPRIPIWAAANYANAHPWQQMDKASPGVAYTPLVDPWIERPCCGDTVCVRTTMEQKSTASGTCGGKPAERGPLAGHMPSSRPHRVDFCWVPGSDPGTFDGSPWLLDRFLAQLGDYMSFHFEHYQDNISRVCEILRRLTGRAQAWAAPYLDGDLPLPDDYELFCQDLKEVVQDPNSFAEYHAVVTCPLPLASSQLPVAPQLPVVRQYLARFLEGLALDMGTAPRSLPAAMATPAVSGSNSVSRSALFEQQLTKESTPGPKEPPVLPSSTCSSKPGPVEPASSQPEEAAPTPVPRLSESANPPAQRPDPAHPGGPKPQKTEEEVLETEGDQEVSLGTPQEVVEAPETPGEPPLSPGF
UniProt Q96FQ6: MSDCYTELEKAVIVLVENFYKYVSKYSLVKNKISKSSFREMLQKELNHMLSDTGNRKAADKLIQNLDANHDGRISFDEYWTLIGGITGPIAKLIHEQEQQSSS
UniProt O14828: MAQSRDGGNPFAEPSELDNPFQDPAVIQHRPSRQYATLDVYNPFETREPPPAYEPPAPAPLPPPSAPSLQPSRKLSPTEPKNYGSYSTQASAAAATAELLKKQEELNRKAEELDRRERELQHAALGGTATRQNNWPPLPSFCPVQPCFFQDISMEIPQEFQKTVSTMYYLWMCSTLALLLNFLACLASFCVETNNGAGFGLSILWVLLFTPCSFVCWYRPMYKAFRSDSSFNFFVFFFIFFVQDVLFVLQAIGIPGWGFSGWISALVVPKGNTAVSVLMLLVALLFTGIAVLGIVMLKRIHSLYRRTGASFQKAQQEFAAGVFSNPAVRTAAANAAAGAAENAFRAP

Target | log2 fold change
SDCBP isoform 2 (UniProt O00560) | inactive: -0.038
RWDD3 (UniProt Q9Y3V2) | inactive: -0.075
SEC14L1 isoform 2 (UniProt Q92503) | inactive: -0.025
SAMD4B (UniProt Q5PRF9) | inactive: -0.459
S100A1 (UniProt P23297) | inactive: 0.122
SCAF1 (UniProt Q9H7N4) | inactive: -0.147
SAYSD1 (UniProt Q9NPB0) | inactive: -0.058
RXRB isoform 3 (UniProt P28702) | inactive: -0.167

These targets were tested with NC(=O)c1cnc(N[C@@H]2CCCC[C@@H]2N)nc1Nc1cccc(-n2nccn2)c1 in the same assay as above.
How it was run: as §1

Target | log2 fold change
SEC22A (UniProt Q96IW7) | inactive: -0.029
SDHB, A0A087WXX8 | inactive: -0.201
SCAI isoform 2 (UniProt Q8N9R8) | inactive: 0.036
SCN4A (UniProt P35499) | inactive: -0.271
S100A4 (UniProt P26447) | inactive: 0.156
RTN4 isoform 5 (UniProt Q9NQC3) | inactive: -0.022
SAP130 isoform 3 (UniProt Q9H0E3) | inactive: -0.077
SBSN (UniProt Q6UWP8) | inactive: 0.541
SCYL3 isoform 2 (UniProt Q8IZE3) | inactive: 0.001
S100A14 (UniProt Q9HCY8) | inactive: 0.257
RTL10 (UniProt Q7L3V2) | inactive: -0.187
S100A2 (UniProt P29034) | inactive: -0.043

What follows are targets tested with NC1(c2ccc(-c3nc4ccn5c(=O)[nH]nc5c4cc3-c3ccccc3)cc2)CCC1 in the same assay as above.
How it was run: as §1

Target | log2 fold change
SDCBP isoform 2 (UniProt O00560) | inactive: -0.286
SDHB, A0A087WXX8 | inactive: 0.136
SCRIB isoform 3 (UniProt Q14160) | inactive: 0.158
SCN4A (UniProt P35499) | inactive: 0.098
S100A16 (UniProt Q96FQ6) | inactive: -0.012
SBSN (UniProt Q6UWP8) | inactive: 0.152
SCYL3 isoform 2 (UniProt Q8IZE3) | inactive: -0.185
S100A14 (UniProt Q9HCY8) | inactive: 0.025
SCGB2A1 (UniProt O75556) | inactive: 0.07
SAYSD1 (UniProt Q9NPB0) | inactive: 0.368
SCAMP3 isoform 2 (UniProt O14828) | inactive: -0.031
RTL10 (UniProt Q7L3V2) | inactive: 0.091
S100A2 (UniProt P29034) | inactive: 0.171

Source: the supplement of paper PMC10849652
